Experimental data reported in PubChem BioAssay AID1347076 (National Center for Advancing Translational Sciences (NCATS), 2019).
Several values for one entry are separate records, joined by “and”; a condition that tells them apart may be missing. Identical values can stand only once. Hit rate of the full screen: of about 400,000 compounds, about 13,000 (3.2%) were called active. Inconclusive means that the source gave no clear call. Such entries were picked first, then a sample of the others. Calls follow the shape of the dose curve; as a rule, active = well fitted cell-killing curve with a large enough effect; inconclusive = small, poorly fitted or top-dose-only effect, or effect the other way; inactive = flat fitted curve, though single readings scatter. A potency beside an inconclusive call is a rough fit, not a confirmed value.

Assay: qHTS assay for MDR1-selective chemotherapeutics: Primary screen using the drug-selected MDR subline cells KB-V1; also: nearly all actives have a fitted effect of over 60% in size
Conditions: KB-V1 MDR cells viability, CellTiter-Glo, 72 h; activity change, negative = cytotoxicity: at 46.1 µM (top of the series)
Outline: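 Cytotoxicity toward P-gp-expressing KB-V1 cells was determined as loss of CellTiter-Glo luminescence after 72 h at 37 degrees C. Compounds were tested in quantitative HTS format across a concentration range, with curves fitted to normalized data.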
% is scaled to controls: 0 for no effect and ±100 for the full control effect; potency is read from the fitted curve at half-maximal effect.

Compound	Potency	activity change, negative = cytotoxicity
Nc1ccccc1SCc1cc([N+](=O)[O-])cc2c1OCOC2	inconclusive: 23.1 µM [cytotoxic, single point]	
O=C(CCc1nc2ccccc2c(=O)[nH]1)Nc1ccc(N2CCCCC2)cc1		inactive: -19.7%
CC1C(=O)CC(c2ccccc2)N(C)C1c1ccccc1 (stereo unspecified)		inactive: -1.5%
N#CC1(NC(=O)Cn2cc(C(F)(F)F)cc(Cl)c2=O)CCCCC1		inconclusive: 31.3%
COc1cccc(NC2=Nc3cccc4cccc2c34)c1	active: 13 µM	
Cc1ccc(/C=C/c2onc(C)c2S(=O)(=O)N2CCC(C(=O)N3CCN(c4cc(C)ccc4C)CC3)CC2)cc1		inactive: 7.33%
Nn1c(=O)[nH]c2ccccc2c1=O		inactive: -30.4%
CCCCCCCCN1C(=O)[C@H](CC(=O)NCc2cccc3ccccc23)C[C@@]2(C(=O)OC)CC(C)(C)CC=C12	inconclusive: 20.6 µM [cytotoxic, single point]	
CCCCCn1c(CN(C)Cc2ccccc2)nc2c1c(=O)n(C)c(=O)n2C	active: 2.31 µM	
Cc1ccc(NC(=S)NC(=O)c2ccc(F)cc2)cc1S(=O)(=O)Nc1cccc(Cl)c1	active: 7.31 µM	
NC(=O)C1CCN(C(=O)c2ccco2)CC1		inactive: 0.582%
COC(=O)CCc1cccc(CCC(=O)OC)c1	inconclusive: 18.4 µM [rising, single point]	
O=c1c2c3c(sc2nc(NCCO)n1Cc1ccco1)CCCCC3		inactive: -18.2%
COc1ccc(Nc2nc(NCc3ccco3)nc(N/N=C/c3ccccc3Cl)n2)cc1	inconclusive: 2.31 µM [cytotoxic, full curve, poor fit]	
Cc1ccccc1OCC(=O)OCC(=O)c1c[nH]c2ccccc12	inconclusive: 29.1 µM [rising, single point]	
CCOC(=O)C1(CCOc2ccccc2)CCN(Cc2cnc(SC)nc2)CC1	inconclusive: 23.1 µM [cytotoxic, single point]	
CC(=O)N(c1ccc2oc(=O)sc2c1)S(=O)(=O)c1cccs1	inconclusive: 20.6 µM [cytotoxic, single point]	
COc1ccc(C=C(c2ccc(OC)cc2)c2ccc(OC)cc2)cc1	inconclusive: 7.31 µM [cytotoxic, partial curve, poor fit]	
CC(C)CC(=O)N1CCN(S(=O)(=O)c2ccc(C3CCCCC3)cc2)CC1	inconclusive: 6.51 µM [cytotoxic, partial curve]	
CCc1c(C2(O)CCCCC2)[nH]c2cc(C(F)(F)F)ccc12	inconclusive: 29.1 µM [cytotoxic, single point]	
C/C(=N\OC(=O)NC1CCCCC1)c1sc(-c2ccccc2)nc1C	inconclusive: 3.98 µM [cytotoxic, full curve, poor fit]	
O=C(NC1CCCCC1)C(c1ccncc1)N(C(=O)Cn1nnc(-c2cccs2)n1)C1CCCC1 (stereo unspecified)	inconclusive: 14.6 µM [cytotoxic, partial curve]	
CC(=O)c1ccc(OCC(C)Oc2ccc(C#N)cc2)cc1 (stereo unspecified)	inconclusive: 18.4 µM [cytotoxic, partial curve]	
COc1cccc(NC(=O)C2(C)CCN2C(=O)CCc2ccc(Cl)cc2Cl)c1 (stereo unspecified)	inconclusive: 29.1 µM [cytotoxic, single point]	

Compound	Potency	activity change, negative = cytotoxicity
Cc1cc(/C=C2/NC(=O)NC2=O)c(C)n1-c1sc2c(c1C#N)CCCC2		inactive: 3.2%
COc1ccc(-c2c[n+](CC(=O)N3c4ccccc4Sc4ccccc43)c3n2CCC3)cc1		inactive: -0.117%
Cc1ccc(/C=N\NC(=O)c2cncc(Br)c2)o1	inconclusive: 25.9 µM [rising, single point]	
CCN(CC)CCOc1ccc(/C(=C(/Cl)c2ccccc2)c2ccccc2)cc1	inconclusive: 14.6 µM [cytotoxic, partial curve] and inconclusive: 18.4 µM [cytotoxic, single point]	
Cc1ccc(NC(=O)c2cc(NC(=O)c3ccco3)ccc2N2CCOCC2)cc1		inactive: 0%
COc1ccc(C(=O)N2CCN(Cc3ccccc3)CC2)cc1[N+](=O)[O-]		inactive: -19%
Cn1nccc1C(=O)Oc1ccc(/C=N/NC(=O)c2ccccc2O)cc1	inconclusive: 16.4 µM [rising, partial curve, poor fit]	
CC(C)NS(=O)(=O)c1ccc(NC(=S)NC(=O)c2cccc([N+](=O)[O-])c2)cc1	inconclusive: 29.1 µM [cytotoxic, single point]	
Cc1ccc(O)c(CNc2nc3ccccc3n2C)c1	active: 16.4 µM	
Cc1cccc(Oc2cc(NC(=O)Cn3cnc([N+](=O)[O-])n3)cc([N+](=O)[O-])c2)c1	inconclusive: 18.4 µM [cytotoxic, single point]	
COc1ccc(N(CC(=O)NC2CC3CCC2C3)S(=O)(=O)c2ccc(C)c([N+](=O)[O-])c2)cc1 (stereo unspecified)	inconclusive: 2.31 µM [cytotoxic, partial curve, poor fit]	
CCc1cc(=O)oc2c(C)c(OCC(=O)Nc3ccc(S(=O)(=O)N(CC)CC)cc3)ccc12		inactive: -8.67%
COc1ccc(OC)c(NC(=O)C2CCN(C(=O)C3CC(=O)N(c4ccc(C)cc4)C3)CC2)c1 (stereo unspecified)	inconclusive: 23.1 µM [cytotoxic, single point]	
CC(C)Cc1nc2n[nH]c(N)c2c2c1CCCC2	inconclusive: 20.6 µM [cytotoxic, partial curve]	
CC(C)(C)n1nnnc1C(c1cccs1)N(Cc1ccc(Cl)cc1)CC1CCCO1 (stereo unspecified)		inactive: -27.4%
COc1ccc(N2C(=O)CS(=O)C(c3ccccc3)C2=O)cc1 (stereo unspecified)	inconclusive: 0.0082 µM [cytotoxic, full curve, poor fit]	
COc1cccc(CN2CCNC(=O)C2CC(=O)N(C)C2CCOCC2)c1OC (stereo unspecified)		inactive: 0.515%
Cc1cccn2cc(-c3cccc(NC(=O)c4cccs4)c3)nc12	inconclusive: 7.31 µM [cytotoxic, partial curve]	
COC(=O)c1ccc([N+](=O)[O-])cc1N1C(=O)C2C3CCC(C3)C2C1=O (stereo unspecified)		inactive: 0%
Cc1ccc(NC(=O)COc2ccc(/C(N)=N/O)cc2)cc1C	inconclusive: 25.9 µM [cytotoxic, single point]	
C/C(=N\Nc1nc(-c2ccccn2)nc2ccccc12)c1ccc(F)cc1	inconclusive: 2.31 µM [cytotoxic, full curve, poor fit]	
CC(C)c1cccc(C(C)C)c1NC(=O)COc1nncc2ccccc12	inconclusive: 3.66 µM [cytotoxic, full curve]	
COc1ccccc1N1CCN(C(=O)c2ccc3noc(-c4ccccc4)c3c2)CC1	inconclusive: 1.64 µM [cytotoxic, partial curve, poor fit]	
COc1oc(C(=O)NC2CCCCC2)c(-c2ccc(Cl)cc2)c1S(=O)(=O)c1ccccc1	active: 4.61 µM	

Compound	Potency	activity change, negative = cytotoxicity
Cc1ccc(NC(=O)C(=O)NCC2CCCN2S(=O)(=O)c2cccs2)cc1C (stereo unspecified)	inconclusive: 23.1 µM [cytotoxic, single point]	
Cc1ccc(-c2nnc(Nc3ccc(O)cc3)c3ccccc23)cc1S(=O)(=O)NC(C)(C)CO		inactive: -18%
Cc1ccc(Nc2nc(CSc3nnnn3-c3ccccc3)cs2)cc1	active: 14.6 µM	
COCCN(CC(=O)Nc1cccc(C)c1C)C(=O)c1cc2c(s1)CCC2	active: 7.31 µM	
Cc1oc(-c2ccccc2Cl)nc1CSCC(=O)NC1CC1	active: 13 µM	
CCCc1cc(=O)n2[nH]c(Cc3ccccc3)nc2n1	inconclusive: 7.31 µM [rising, partial curve, poor fit]	
O=C(Nc1cccnc1)c1ccc2c(c1)C(=O)N(CC1CCCO1)C2=O (stereo unspecified)	inconclusive: 29.1 µM [rising, single point]	
N#C/C(=C\c1ccc(N2CCOCC2)c([N+](=O)[O-])c1)c1nc2ccccc2[nH]1	active: 10.3 µM	
CCC(C)NC(=O)c1ccc(COc2ccccc2Cl)cc1 (stereo unspecified)	active: 20.6 µM	
CCn1c(SCC(=O)NC2CC2)nnc1-c1ccccc1		inactive: 4.24%
O=C(Nc1cccc(-c2cccc(F)c2)c1)C1CCN(Cc2ccc(CO)o2)CC1		inactive: -5.49%
Cc1ccccc1NC(=O)C1CCCN(C(=O)Nc2ccc(F)cc2)C1 (stereo unspecified)	inconclusive: 29.1 µM [rising, single point]	
CCOC(=O)c1scc(-c2ccc(C)cc2)c1S(=O)(=O)N1CCN(c2ccccc2)CC1		inactive: -10%
O=C(N/N=C/c1ccncc1)c1cc(Br)ccc1OCc1ccccc1	inconclusive: 9.2 µM [cytotoxic, partial curve]	
CCc1c(C)c(C#N)c2nc3ccccc3n2c1Nc1c(C)n(C)n(-c2ccccc2)c1=O	inconclusive: 18.4 µM [cytotoxic, partial curve]	
CCOc1ccccc1NC(=O)c1ccccc1-c1nc(-c2ccccc2OC)no1	inconclusive: 18.4 µM [cytotoxic, single point]	
Cc1n[nH]c(C)c1S(=O)(=O)N1CCN(S(=O)(=O)c2cccc(F)c2)CC1		inactive: 7.08%
CCOc1cc(C(=O)Nc2ccc3nc(N4CCN(C)CC4)cc(C)c3c2)cc(OCC)c1OCC		inactive: 7.96%
COc1ccc(CC2(CO)COc3ccccc3C2=O)cc1 (stereo unspecified)	active: 13 µM	
COc1ccc2cc(C(C)=O)c(=O)oc2c1		inactive: -0.522%
CC(C)(C)[C@H]1C=C(C(=O)N2CCN(Cc3ccc4c(c3)OCO4)CC2)O[C@@H](OCc2ccc(CO)cc2)C1		inactive: -20.4%
CC(O)CNc1nc(N)[nH]c(=O)c1N=Nc1ccccc1 (stereo unspecified)	inconclusive: 29.1 µM [rising, single point]	
COc1ccc(S(=O)(=O)N(CC(=O)Nc2ccc(C)cc2)c2ccc(C)cc2)cc1OC	inconclusive: 2.91 µM [cytotoxic, partial curve, poor fit]	
